Assay results reported in paper PMC8915595, “Revisiting the application of Immobilized Artificial Membrane (IAM) chromatography to estimate in vivo distribution properties of drug discovery compounds based on the model of marketed drugs” (ADMET & DMPK, 2020).

Sequences of proteins named here, by UniProt entry; tags and fusion partners are left off. Residues count along the entry.
UniProt P02768, 25-609: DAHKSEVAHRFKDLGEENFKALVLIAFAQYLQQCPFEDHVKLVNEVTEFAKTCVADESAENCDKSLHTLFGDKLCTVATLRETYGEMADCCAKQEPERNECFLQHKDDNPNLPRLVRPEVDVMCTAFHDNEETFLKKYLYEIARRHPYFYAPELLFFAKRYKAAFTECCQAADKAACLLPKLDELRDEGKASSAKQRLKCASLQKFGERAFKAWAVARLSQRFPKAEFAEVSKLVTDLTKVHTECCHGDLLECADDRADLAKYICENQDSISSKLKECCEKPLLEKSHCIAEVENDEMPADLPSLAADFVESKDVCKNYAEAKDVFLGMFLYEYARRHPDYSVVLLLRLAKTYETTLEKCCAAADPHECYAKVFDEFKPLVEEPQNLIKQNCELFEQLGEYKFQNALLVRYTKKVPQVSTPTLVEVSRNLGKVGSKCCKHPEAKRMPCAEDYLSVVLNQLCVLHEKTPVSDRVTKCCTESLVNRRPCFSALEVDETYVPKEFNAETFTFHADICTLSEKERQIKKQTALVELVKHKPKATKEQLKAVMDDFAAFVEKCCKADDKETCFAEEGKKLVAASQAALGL

What was measured:
[1] = biological target: T1, human serum albumin (HSA) (Homo sapiens, UniProt P02768); settings: cited from earlier work
[2] = IAM chromatography on new IAM.PC.DD2 columns (gradient HPLC, CHI (IAM)); assay type: physicochemical; parameters: key to P20511-014-3 CHI (IAM): CHI (IAM) from retention times calibrated to predefined CHI standards
Procedure: The IAM binding was measured using IAM.PC.DD2 HPLC columns (Regis Technologies, Inc., IL, USA) with dimensions of 100 x 4.6 mm, particle size 10 μm with 300 Å pore size.
Two batches of IAM.PC.DD2 columns were studied (R20511-014-3 and P20511-014-3) that had been prepared using the new batches of silica support.
The retention times were standardized using the IAM calibration mixture, containing octanophenone, heptanophenone, hexanophenone, valerophenone, butyrophenone, propiophenone, acetophenone, acetanilide and paracetamol. The retention times of the compounds were plotted against the isocratically determined and predefined CHI (IAM) values listed in Table 1. The slope and intercept of the obtained straight line was used to calculate the CHI IAM values of new compounds.

[3] = biological target: T1, human serum albumin (HSA); experiment: Protein binding on chemically bonded HSA column (Chiralpak-HSA); settings: remeasured in this study, pH 7.4

COC(=O)C1=C(C)NC(C)=C(C(=O)OC)C1c1ccccc1[N+](=O)[O-] [Nifedipine]
log K HSA from ref [13] [1]: 3.13 | P20511-014-3 CHI (IAM) ([2]; new IAM.PC.DD2 column batch P20511-014-3, pH 7.4): 28.16 | R20511-014-3 CHI (IAM) ([2]; new IAM.PC.DD2 column batch R20511-014-3, pH 7.4): 28.11 | log K HSA [3]: 3.37
